Results are given in words; binding and its absence hold for the method and conditions named. A result given as binding can be weak or reduced; the word gives no strength. For some of these results: In cells and extracts the contact can be indirect.
What was measured:
[1] = molecular target: recombinant human Pcsk9 (aa 31-692) with C-terminal his6 tag (human) (UniProt Q8NBP7); experiment: epitope mapping, FIG. 7
[2] = molecular target: recombinant human Pcsk9 (aa 31-692) with C-terminal his6 tag (human) (UniProt Q8NBP7); experiment: ELISA on Pcsk9-HIS
[3] = molecular target: recombinant human Pcsk9 (aa 31-692) with C-terminal his6 tag (human) (UniProt Q8NBP7); experiment: specificity ELISA on a panel of human and mouse antigens
[4] = molecular target: recombinant human Pcsk9 (aa 31-692) with C-terminal his6 tag (human) (UniProt Q8NBP7); experiment: ELISA, Pcsk9 captured by its HIS tag on a Ni plate
[5] = molecular target: recombinant human Pcsk9 (aa 31-692) with C-terminal his6 tag (human) (UniProt Q8NBP7); experiment: specificity ELISA on coated antigen (88 ng per well), antibody at 2 µg/mL, ABS650
[6] = molecular target: recombinant human Pcsk9 (aa 31-692) with C-terminal his6 tag (human) (UniProt Q8NBP7); experiment: ELISA
[7] = molecular target: recombinant human Pcsk9 (aa 31-692) with C-terminal his6 tag (human) (UniProt Q8NBP7); experiment: co-immunoprecipitation with 5P20, blot

By UniProt entry, the sequences of proteins in these tests, tags left out. Where a name states a change or a piece, a line headed by the entry shows the natural chain unless it says otherwise.
UniProt Q8NBP7: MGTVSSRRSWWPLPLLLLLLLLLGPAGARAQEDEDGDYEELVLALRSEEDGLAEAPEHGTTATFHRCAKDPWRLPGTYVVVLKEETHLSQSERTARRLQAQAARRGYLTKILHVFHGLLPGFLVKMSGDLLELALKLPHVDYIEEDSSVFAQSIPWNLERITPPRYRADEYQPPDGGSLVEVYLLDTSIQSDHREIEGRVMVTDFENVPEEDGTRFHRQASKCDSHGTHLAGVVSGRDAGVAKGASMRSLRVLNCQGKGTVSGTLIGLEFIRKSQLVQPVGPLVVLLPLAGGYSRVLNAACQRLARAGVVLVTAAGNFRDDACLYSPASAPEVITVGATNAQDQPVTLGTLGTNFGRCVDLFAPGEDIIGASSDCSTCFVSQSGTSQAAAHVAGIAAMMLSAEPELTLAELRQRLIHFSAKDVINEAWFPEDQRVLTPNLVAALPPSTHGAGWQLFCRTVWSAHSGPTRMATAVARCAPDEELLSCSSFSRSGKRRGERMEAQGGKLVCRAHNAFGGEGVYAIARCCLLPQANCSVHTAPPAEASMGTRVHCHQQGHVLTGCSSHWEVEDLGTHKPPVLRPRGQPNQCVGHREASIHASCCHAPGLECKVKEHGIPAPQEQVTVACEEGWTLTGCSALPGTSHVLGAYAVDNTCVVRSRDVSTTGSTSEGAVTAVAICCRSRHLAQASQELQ

Measured: binding

B1: NVP-LFU720 (antibody, V domains shown)
VH: EVQLQQSGAELMKPGASVKLSCTASGFNIKDMYMSWVRQRPEQGLEWIGRIDPANGHTNYDPKFQAKATITTDTSSKTAYLHLSSLTSEDTAVYYCARSYYYYAMDYWGQGTSVTVSS
VL: QIVLTQSPAIMSASPGEKVTMTCSASSSVSYMHWYQQKPGSSPRLWIYLTFNLASGVPARFSGSGSGTSYSLSISSMEAEDAATYYCLQWSSDPPTFGSGTKLEIK
binds: [1] | [2] | [3] | [4] | [5] | [6] | [7]
